The values that follow come from the supplement of paper PMC12819154, “High-throughput peptide-centric local stability assay extends protein–ligand identification to membrane proteins, tissues and bacteria” (Nature Structural & Molecular Biology, 2025).

Chains of the proteins cited; added tags and fusions are not shown. Lines headed by an entry give the natural chain unless they say otherwise; changes in a name come on top.
UniProt P77806: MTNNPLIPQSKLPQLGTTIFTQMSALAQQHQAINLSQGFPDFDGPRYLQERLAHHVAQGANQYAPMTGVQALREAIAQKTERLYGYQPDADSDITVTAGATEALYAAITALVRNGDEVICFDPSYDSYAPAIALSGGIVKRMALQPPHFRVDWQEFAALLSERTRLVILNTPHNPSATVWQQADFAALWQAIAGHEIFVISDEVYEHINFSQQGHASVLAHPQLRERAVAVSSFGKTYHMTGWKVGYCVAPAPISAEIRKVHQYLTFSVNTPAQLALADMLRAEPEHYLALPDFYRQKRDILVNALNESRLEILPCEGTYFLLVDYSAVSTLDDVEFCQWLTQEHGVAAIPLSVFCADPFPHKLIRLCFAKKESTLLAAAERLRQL
UniProt P77526: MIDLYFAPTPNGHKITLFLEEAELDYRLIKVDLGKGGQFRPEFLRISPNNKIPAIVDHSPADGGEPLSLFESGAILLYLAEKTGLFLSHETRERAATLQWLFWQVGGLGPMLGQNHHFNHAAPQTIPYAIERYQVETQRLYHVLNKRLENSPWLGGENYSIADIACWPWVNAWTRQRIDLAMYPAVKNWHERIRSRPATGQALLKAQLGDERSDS
UniProt P77781: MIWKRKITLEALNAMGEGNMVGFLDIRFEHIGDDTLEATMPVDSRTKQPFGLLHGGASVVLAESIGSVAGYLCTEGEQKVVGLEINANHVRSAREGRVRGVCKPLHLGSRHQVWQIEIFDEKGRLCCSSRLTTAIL
UniProt P77295: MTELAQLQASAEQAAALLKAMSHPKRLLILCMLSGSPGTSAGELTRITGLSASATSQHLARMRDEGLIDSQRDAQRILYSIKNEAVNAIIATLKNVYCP
UniProt P77319: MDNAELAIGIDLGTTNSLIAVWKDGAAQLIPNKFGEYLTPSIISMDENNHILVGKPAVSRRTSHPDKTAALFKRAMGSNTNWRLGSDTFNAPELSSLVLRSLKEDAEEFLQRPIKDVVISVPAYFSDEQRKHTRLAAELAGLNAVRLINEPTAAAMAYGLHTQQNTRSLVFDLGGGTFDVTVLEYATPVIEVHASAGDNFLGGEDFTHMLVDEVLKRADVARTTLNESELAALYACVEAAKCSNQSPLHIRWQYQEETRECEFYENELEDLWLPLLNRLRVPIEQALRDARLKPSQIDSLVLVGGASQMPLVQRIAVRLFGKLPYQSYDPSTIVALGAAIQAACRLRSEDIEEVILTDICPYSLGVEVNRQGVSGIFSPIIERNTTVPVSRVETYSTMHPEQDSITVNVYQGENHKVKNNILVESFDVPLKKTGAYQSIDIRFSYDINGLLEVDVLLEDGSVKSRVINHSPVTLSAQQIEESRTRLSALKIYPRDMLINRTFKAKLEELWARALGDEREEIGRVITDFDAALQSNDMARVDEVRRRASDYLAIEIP
UniProt P77396: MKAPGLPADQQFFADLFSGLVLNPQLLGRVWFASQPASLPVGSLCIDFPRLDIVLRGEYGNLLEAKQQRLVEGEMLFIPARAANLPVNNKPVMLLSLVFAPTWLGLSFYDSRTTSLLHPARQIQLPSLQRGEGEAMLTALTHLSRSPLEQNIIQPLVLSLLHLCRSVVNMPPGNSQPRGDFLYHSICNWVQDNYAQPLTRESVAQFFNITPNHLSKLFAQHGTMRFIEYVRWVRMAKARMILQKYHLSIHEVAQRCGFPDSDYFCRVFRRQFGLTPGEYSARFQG
UniProt P77726: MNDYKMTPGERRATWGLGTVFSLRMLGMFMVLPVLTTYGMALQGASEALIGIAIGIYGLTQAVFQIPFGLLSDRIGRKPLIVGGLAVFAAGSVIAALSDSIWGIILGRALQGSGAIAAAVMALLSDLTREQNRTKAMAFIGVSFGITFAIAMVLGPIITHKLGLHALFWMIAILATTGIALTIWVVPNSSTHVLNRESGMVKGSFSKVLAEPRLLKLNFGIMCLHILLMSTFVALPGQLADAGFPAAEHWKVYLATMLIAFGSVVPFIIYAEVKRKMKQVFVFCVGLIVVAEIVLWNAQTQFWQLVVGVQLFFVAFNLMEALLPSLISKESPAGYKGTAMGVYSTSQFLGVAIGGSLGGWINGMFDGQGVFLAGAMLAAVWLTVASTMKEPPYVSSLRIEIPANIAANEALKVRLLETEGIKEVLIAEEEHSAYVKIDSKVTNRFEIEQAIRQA
UniProt P77375: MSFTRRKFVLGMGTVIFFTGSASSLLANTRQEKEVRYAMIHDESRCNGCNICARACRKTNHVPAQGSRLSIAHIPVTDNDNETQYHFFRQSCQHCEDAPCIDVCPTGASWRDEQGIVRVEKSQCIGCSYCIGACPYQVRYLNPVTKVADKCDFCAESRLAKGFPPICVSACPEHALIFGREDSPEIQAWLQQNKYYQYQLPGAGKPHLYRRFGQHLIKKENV
UniProt P77732: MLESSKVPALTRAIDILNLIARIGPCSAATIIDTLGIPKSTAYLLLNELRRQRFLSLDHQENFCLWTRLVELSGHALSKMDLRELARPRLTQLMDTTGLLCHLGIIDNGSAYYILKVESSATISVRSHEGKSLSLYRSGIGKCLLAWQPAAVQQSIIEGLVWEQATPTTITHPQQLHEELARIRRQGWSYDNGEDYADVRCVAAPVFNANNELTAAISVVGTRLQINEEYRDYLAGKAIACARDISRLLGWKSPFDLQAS
UniProt P77338: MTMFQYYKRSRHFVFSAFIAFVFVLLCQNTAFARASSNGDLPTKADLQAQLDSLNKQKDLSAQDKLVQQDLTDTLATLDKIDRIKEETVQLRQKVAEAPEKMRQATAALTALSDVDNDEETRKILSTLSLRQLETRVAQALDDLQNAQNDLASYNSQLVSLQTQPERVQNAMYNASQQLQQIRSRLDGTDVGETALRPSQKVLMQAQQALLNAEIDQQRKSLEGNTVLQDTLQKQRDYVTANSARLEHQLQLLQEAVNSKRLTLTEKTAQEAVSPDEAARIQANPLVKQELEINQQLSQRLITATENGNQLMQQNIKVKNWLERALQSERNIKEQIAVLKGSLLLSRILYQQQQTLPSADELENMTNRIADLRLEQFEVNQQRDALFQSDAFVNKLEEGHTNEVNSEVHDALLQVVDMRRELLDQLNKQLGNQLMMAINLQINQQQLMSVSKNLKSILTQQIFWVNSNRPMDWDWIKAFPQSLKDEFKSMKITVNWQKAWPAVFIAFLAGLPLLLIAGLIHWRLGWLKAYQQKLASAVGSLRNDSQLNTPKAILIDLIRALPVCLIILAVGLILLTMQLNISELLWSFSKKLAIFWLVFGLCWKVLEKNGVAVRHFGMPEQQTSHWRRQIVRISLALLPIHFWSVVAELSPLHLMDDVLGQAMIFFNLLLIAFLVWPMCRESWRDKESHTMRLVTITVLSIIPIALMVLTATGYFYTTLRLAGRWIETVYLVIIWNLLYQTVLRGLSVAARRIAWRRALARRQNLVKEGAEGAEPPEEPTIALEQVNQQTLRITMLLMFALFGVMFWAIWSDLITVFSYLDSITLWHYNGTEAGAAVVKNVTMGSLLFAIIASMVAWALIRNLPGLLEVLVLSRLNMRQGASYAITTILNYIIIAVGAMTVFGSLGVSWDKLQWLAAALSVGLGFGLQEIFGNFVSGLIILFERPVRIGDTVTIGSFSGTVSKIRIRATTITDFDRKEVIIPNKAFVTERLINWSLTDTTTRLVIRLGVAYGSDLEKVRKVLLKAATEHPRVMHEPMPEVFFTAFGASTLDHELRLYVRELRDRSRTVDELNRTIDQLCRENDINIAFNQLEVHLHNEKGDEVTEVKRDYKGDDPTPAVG
UniProt Q46948: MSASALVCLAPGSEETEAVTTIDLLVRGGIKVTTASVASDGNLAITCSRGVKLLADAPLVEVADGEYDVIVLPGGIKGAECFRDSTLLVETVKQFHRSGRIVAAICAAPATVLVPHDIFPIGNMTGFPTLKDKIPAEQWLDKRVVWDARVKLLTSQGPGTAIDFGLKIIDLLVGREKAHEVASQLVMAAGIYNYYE
UniProt Q46809: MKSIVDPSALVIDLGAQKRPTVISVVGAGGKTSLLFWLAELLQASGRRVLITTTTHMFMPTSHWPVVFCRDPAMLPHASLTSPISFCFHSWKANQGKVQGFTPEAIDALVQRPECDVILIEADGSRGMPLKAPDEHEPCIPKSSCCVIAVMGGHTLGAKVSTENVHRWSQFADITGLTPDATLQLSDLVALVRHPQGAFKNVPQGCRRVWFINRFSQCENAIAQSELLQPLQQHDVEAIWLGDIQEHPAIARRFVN
UniProt P77585: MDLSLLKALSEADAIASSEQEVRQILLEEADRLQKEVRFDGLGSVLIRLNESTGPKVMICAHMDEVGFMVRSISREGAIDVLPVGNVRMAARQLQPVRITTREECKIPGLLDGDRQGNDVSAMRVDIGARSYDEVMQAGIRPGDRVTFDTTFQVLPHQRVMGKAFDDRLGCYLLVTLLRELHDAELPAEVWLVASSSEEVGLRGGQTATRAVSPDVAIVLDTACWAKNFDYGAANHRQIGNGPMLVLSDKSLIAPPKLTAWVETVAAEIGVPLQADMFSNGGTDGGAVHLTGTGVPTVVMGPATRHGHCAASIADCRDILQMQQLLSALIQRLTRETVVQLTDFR
UniProt P77379: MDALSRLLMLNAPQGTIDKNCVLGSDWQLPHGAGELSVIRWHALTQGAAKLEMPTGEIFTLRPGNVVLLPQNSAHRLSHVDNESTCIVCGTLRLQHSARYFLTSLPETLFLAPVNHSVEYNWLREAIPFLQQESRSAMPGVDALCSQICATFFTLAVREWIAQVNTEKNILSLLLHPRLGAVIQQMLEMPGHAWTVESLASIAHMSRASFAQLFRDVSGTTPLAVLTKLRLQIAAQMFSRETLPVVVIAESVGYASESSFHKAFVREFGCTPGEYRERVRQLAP
UniProt P77510: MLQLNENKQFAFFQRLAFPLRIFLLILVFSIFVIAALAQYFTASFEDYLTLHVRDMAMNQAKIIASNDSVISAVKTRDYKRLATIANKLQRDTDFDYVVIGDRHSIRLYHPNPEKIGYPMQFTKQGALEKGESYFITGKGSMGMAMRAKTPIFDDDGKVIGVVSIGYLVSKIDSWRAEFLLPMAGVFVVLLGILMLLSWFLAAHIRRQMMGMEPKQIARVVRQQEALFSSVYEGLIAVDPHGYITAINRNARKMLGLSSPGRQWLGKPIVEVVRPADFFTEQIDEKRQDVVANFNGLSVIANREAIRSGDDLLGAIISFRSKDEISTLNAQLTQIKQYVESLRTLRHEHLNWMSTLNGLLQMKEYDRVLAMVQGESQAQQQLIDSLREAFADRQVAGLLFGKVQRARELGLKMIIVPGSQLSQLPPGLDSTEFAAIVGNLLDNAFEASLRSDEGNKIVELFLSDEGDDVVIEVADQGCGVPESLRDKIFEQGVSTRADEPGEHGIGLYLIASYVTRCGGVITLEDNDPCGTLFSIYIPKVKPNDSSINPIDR
UniProt Q46845: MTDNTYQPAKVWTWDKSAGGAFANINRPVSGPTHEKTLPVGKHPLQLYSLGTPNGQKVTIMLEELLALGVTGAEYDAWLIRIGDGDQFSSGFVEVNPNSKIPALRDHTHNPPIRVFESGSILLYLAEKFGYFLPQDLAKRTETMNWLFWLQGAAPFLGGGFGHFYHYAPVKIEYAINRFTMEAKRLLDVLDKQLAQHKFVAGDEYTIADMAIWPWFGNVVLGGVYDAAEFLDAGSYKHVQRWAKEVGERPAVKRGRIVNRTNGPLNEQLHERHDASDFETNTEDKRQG
UniProt P77625: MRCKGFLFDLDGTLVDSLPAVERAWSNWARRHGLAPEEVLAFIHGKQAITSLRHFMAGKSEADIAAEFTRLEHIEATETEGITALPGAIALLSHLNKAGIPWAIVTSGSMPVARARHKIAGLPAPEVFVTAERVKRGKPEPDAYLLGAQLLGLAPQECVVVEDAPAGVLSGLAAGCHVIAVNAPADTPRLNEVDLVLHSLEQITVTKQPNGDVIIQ
UniProt Q2M7X4: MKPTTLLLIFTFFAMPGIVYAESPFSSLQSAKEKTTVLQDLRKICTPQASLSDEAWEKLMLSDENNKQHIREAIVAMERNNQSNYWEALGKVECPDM
UniProt Q47152: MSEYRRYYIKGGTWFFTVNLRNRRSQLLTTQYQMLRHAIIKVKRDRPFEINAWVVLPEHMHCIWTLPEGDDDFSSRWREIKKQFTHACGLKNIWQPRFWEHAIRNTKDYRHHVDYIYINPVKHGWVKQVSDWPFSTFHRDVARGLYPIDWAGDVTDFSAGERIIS
UniProt Q46865: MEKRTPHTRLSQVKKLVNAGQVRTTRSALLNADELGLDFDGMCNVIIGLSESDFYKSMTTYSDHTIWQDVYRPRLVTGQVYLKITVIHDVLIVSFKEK
UniProt Q47083: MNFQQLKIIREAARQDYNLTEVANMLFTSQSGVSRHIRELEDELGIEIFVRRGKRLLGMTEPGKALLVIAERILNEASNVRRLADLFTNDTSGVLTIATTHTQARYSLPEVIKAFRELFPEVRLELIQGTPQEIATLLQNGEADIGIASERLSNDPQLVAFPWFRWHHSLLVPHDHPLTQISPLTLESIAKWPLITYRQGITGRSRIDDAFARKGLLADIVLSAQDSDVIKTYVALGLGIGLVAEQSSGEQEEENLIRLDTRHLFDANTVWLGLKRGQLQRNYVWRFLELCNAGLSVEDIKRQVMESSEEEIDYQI

The list shows a part of the results, in another mix than the full data. Most values lie at the level of the controls, where differences are scatter.
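Note: lysate desalted by size exclusion to strip endogenous ATP, peptide intensities built from DIA-NN precursor signals, and peptides missing any value discarded before comparison.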

Compound in the test: Nc1ncnc2c1ncn2[C@@H]1O[C@H](COP(=O)(O)OP(=O)(O)OP(=O)(O)O)[C@@H](O)[C@H]1O [adenosine 5'-triphosphate]
The test can be described thus: log2 fold change of tryptic peptide abundance, ligand vs vehicle (limited proteolysis) (log2 ratio); higher = more trypsin-susceptible (destabilized). Conditions: ligand concentration: 5 mM; sample: E. coli desalted lysate; replicate design: treated before aliquoting. How it is done: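 HT-PELSA: desalted E. coli K-12 BW25113 lysate (with 12 mM MgCl2) incubated with 5 mM ATP (pH 7) or water for 30 min at 25 C, then a 4 min trypsin pulse at 22 C. Peptides were quantified by DIA-MS (4 replicates). Value is the peptide log2 fold change (treated/control); negative = stabilized. Scale: negative = ligand-stabilized region.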
Turning to “UniProt P77348 (peptide sequence: VLAQASTENTVK, peptide start residue: 469)”, the log2 fold change came to 0.198. Turning to “UniProt Q46799 (peptide sequence: CAYAYSSK, peptide start residue: 330)”, the log2 fold change is -0.458. In the case of “UniProt P77806 (peptide sequence: AVAVSSFGK, peptide start residue: 228)”, the log2 fold change is -0.263. With “UniProt P77409 (peptide sequence: SMVDGYHRH, peptide start residue: 253)” the figure was -0.566; with “UniProt P77744 (peptide sequence: SLMPAVISR, peptide start residue: 108)”, -0.568.

Consider “UniProt P77526 (peptide sequence: SRPATGQALLK, peptide start residue: 195)”, for which the log2 fold change came out at 1.1. Regarding “UniProt P77781 (peptide sequence: FEHIGDDTLEATMPVDSR, peptide start residue: 28)”, the log2 fold change was -0.356.

Consider “UniProt P77295 (peptide sequence: MRDEGLIDSQR, peptide start residue: 62)”, for which the log2 fold change worked out at 0.223. The result for “UniProt P77260 (peptide sequence: TATGVIVEALAR, peptide start residue: 157)” reads -0.67; that for “UniProt P77445 (peptide sequence: LEGGCHHTAAMHSR, peptide start residue: 386)”, 0.564. As for “UniProt P77319 (peptide sequence: LAAELAGLNAVR, peptide start residue: 135)”, the log2 fold change is -0.47. For the target “UniProt P77396 (peptide sequence: YHLSIHEVAQR, peptide start residue: 245)”, the log2 fold change amounted to 0.51.

Turning to “UniProt P77726 (peptide sequence: LLETEGIKEVLIAEEEHSAYVK, peptide start residue: 415)”, the log2 fold change is -0.263. Turning to “UniProt Q46907 (peptide sequence: VMNGGVDAEK, peptide start residue: 203)”, the log2 fold change is -1.11. With “UniProt Q46896 (peptide sequence: LALDEDLR, peptide start residue: 105)” the figure was -0.321. The result for “UniProt P77375 (peptide sequence: CDFCAESR, peptide start residue: 151)” reads -0.331; that for “UniProt Q06067 (peptide sequence: VIQQLLEFSRPR, peptide start residue: 440)”, 0.717.

As for “UniProt P77748 (peptide sequence: DHLVATVESYAPLMAR, peptide start residue: 710)”, the log2 fold change is -0.452. The result for “UniProt P77732 (peptide sequence: LVELSGHALSK, peptide start residue: 69)” reads 0.654. Turning to “UniProt Q46811 (peptide sequence: WHKPAGSGSR, peptide start residue: 541)”, the log2 fold change was determined as 0.435.

Take “UniProt Q47156 (peptide sequence: LEEITRR, peptide start residue: 73)”: the log2 fold change was 0.537. As for “UniProt P77338 (peptide sequence: RLTLTEK, peptide start residue: 261)”, the log2 fold change worked out at 0.276. The result for “UniProt Q46948 (peptide sequence: DSTLLVETVK, peptide start residue: 84)” reads -0.416; that for “UniProt P77280 (peptide sequence: QAPYLVMR, peptide start residue: 253)”, -0.435; that for “UniProt Q46809 (peptide sequence: VSTENVHR, peptide start residue: 160)”, 0.438. With “UniProt P77585 (peptide sequence: NFDYGAANHR, peptide start residue: 228)” the figure was -0.641; with “UniProt Q46810 (peptide sequence: IILVTGYRGNELHER, peptide start residue: 46)”, -0.459; with “UniProt Q46897 (peptide sequence: DFLFHVEK, peptide start residue: 36)”, 0.678. The result for “UniProt P77379 (peptide sequence: LSHVDNESTCIVCGTLR, peptide start residue: 77)” reads -0.33.

Turning to “UniProt P77700 (peptide sequence: IDTISQGIEAR, peptide start residue: 86)”, the log2 fold change is -0.362. With “UniProt P77510 (peptide sequence: VKPNDSSINPIDR, peptide start residue: 540)” the figure was -0.116; with “UniProt P77529 (peptide sequence: SSAASIPLNVEAQTRR, peptide start residue: 308)”, -0.364. On to “UniProt Q46845 (peptide sequence: EVGERPAVK, peptide start residue: 245)”, for which the log2 fold change stood at 0.639. Turning to “UniProt P77625 (peptide sequence: RHGLAPEEVLAFIHGK, peptide start residue: 31)”, the log2 fold change was found to be 0.668. The result for “UniProt P77596 (peptide sequence: FANHELSLQEAAELGCR, peptide start residue: 208)” reads 0.278; that for “UniProt Q2M7X4 (peptide sequence: EAIVAMER, peptide start residue: 72)”, 0.139. For “UniProt Q47141 (peptide sequence: KIVQEDR, peptide start residue: 84)”, the log2 fold change was -0.102. With “UniProt Q47152 (peptide sequence: HHVDYIYINPVK, peptide start residue: 111)” the figure was -0.173; with “UniProt Q46865 (peptide sequence: KLVNAGQVR, peptide start residue: 15)”, 0.184; with “UniProt Q47083 (peptide sequence: ILNEASNVR, peptide start residue: 73)”, -0.396.
